The supplement of paper PMC12067093, “Discovery and optimisation of a covalent ligand for TRIM25 and its application to targeted protein ubiquitination” (Chemical Science, 2025)
Some of the results follow.

By UniProt entry, the sequences of proteins in these tests, tags left out. Where a name states a change or a piece, a line headed by the entry shows the natural chain unless it says otherwise.
UniProt Q5JPI3: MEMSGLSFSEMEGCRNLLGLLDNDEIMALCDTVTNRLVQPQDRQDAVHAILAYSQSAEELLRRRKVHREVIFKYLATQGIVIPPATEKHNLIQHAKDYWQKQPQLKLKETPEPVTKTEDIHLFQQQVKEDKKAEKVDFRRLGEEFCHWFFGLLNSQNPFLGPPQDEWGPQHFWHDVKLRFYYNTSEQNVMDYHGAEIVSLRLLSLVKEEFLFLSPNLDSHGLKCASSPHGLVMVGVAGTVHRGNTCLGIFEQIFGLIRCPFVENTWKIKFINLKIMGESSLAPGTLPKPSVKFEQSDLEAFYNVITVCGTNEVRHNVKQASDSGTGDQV
UniProt Q13557, whole entry, looked up: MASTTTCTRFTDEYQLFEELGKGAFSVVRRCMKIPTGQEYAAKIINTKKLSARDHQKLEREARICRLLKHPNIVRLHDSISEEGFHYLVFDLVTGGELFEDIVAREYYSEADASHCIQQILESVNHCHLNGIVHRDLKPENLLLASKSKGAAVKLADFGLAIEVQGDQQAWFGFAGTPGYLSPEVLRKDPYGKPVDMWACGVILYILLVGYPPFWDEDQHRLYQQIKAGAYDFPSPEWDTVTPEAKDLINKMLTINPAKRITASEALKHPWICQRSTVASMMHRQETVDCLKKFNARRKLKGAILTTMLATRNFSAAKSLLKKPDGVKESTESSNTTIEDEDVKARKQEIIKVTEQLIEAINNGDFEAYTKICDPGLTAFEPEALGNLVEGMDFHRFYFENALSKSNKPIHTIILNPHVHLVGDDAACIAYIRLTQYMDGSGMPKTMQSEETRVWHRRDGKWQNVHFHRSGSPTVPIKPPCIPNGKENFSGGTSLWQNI
UniProt O43684, whole entry, looked up: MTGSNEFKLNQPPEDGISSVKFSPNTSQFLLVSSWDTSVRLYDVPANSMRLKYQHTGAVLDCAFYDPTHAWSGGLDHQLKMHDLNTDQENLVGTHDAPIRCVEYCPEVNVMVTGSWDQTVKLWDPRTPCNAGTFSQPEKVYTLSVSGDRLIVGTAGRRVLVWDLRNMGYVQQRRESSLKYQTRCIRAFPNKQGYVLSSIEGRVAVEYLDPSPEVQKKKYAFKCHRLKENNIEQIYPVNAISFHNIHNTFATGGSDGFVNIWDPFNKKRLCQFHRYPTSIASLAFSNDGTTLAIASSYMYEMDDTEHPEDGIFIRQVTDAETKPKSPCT
UniProt P0DMB2: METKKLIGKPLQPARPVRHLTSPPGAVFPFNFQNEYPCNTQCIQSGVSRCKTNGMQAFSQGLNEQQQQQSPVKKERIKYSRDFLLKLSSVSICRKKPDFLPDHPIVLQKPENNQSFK
UniProt Q9NPI1: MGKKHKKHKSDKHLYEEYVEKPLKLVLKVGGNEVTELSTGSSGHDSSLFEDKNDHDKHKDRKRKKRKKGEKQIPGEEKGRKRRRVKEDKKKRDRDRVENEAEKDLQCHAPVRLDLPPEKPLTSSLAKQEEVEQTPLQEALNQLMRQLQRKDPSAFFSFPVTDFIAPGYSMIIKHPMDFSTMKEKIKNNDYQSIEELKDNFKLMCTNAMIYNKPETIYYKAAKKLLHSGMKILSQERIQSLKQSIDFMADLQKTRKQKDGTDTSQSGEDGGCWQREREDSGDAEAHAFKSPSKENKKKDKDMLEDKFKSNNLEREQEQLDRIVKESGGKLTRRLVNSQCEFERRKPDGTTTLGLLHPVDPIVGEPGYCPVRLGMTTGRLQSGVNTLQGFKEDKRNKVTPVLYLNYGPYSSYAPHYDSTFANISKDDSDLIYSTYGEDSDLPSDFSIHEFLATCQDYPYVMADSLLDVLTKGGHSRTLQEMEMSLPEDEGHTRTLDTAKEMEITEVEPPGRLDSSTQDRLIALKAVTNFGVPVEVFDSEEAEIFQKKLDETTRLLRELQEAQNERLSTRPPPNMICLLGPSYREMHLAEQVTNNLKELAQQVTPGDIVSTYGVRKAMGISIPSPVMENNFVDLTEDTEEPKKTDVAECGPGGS
UniProt Q9BTV7: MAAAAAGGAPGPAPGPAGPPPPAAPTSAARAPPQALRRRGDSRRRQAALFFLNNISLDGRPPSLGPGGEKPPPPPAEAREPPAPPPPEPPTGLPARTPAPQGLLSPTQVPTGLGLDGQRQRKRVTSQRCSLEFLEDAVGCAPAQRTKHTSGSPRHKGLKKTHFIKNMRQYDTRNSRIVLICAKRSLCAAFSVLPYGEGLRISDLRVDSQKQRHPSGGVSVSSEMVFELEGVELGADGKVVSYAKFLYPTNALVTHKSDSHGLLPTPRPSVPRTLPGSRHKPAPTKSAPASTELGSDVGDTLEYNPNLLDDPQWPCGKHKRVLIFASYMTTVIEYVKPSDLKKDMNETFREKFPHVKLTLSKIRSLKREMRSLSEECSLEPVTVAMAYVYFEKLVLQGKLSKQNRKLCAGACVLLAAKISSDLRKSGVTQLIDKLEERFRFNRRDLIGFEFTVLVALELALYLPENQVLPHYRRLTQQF
UniProt Q9H3H3: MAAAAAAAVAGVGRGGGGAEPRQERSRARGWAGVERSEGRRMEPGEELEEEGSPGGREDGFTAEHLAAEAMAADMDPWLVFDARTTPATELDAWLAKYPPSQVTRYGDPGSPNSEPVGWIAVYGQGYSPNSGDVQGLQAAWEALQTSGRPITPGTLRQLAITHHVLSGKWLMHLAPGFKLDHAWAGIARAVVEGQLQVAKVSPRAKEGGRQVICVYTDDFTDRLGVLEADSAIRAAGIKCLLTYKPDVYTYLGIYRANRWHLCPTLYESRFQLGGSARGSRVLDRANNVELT
UniProt Q9BX63: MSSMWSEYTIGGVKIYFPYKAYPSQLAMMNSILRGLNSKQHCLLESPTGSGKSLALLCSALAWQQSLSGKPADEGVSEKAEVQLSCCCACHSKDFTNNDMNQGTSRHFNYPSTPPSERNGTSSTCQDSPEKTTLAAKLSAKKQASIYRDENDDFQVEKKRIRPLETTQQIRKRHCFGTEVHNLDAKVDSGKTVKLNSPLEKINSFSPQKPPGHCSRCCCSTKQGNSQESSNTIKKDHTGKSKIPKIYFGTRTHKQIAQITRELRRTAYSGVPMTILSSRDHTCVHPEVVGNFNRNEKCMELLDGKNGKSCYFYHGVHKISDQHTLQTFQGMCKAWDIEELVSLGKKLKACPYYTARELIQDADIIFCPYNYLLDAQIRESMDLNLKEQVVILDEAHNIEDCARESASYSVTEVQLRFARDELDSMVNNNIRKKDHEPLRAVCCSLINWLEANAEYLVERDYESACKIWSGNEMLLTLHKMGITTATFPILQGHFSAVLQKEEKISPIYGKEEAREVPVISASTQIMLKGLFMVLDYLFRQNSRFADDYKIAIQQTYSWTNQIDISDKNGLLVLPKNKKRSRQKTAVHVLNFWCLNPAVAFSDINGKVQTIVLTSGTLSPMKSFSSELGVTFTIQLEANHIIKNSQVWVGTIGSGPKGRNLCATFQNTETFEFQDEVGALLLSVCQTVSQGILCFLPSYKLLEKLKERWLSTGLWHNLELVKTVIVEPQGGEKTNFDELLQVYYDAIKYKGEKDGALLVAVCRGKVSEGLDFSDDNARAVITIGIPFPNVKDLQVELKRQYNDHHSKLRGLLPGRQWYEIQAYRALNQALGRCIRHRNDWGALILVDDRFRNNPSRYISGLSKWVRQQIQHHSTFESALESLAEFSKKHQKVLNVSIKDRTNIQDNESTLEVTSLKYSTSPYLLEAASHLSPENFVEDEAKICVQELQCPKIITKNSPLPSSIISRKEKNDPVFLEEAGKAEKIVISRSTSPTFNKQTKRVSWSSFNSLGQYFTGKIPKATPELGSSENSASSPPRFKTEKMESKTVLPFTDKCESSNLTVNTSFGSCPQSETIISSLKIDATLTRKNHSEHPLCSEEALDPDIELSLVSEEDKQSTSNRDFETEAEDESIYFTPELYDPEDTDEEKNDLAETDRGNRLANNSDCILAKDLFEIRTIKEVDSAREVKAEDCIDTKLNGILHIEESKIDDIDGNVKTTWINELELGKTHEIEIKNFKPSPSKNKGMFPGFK
UniProt Q5BKX5: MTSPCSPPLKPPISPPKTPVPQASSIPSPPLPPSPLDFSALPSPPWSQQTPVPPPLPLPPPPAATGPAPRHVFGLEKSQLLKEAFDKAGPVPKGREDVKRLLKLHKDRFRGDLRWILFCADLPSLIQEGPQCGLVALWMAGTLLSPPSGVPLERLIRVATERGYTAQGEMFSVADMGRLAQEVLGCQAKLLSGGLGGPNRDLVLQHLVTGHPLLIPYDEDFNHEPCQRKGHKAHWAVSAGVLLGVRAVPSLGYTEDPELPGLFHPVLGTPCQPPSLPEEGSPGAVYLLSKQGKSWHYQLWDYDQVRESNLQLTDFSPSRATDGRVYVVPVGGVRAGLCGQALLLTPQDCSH
UniProt O95696: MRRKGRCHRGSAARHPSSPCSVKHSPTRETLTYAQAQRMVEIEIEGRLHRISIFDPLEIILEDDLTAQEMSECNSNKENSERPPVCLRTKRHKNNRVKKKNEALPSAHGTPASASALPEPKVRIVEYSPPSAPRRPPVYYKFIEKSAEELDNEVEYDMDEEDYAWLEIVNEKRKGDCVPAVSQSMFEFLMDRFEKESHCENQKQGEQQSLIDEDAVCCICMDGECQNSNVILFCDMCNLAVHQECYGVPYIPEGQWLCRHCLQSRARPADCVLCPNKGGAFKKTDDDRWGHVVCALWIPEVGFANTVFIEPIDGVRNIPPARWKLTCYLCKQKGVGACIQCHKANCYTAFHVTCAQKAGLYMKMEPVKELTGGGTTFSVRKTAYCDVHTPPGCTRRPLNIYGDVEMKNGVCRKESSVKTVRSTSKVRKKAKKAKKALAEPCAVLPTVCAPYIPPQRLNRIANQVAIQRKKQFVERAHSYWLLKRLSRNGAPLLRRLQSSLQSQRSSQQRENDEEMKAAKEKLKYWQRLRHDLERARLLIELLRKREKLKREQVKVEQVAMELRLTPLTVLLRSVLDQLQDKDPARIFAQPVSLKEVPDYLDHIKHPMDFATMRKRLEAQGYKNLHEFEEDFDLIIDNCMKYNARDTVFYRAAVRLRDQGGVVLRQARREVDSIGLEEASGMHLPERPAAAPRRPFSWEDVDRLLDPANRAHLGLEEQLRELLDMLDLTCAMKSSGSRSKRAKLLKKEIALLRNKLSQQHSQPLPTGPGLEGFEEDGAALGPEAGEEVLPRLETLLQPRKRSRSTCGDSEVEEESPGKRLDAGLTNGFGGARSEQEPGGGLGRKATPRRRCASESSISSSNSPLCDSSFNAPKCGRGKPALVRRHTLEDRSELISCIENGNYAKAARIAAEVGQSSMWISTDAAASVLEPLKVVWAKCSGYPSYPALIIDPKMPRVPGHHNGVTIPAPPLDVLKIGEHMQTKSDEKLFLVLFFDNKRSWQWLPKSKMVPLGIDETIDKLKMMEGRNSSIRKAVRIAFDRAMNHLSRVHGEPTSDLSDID

Compound: Cc1cc(ccc1-c1ccccc1)C(=O)N1CCCN(CC1)C(=O)CCl [compound 10]
Experiment: probe-labelled cysteine peptide fold change vs DMSO (competition) (log2 fold change); higher = less target engagement (more negative = stronger competition)
Conditions: THP-1, incubation time: 4 h
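Further: competitive profiling in live THP-1 cells: cysteine peptides tagged with an iodoacetamide desthiobiotin (IA-DTB) probe, intensity after compound treatment relative to DMSO-treated cells.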

Target | probe-labelled cysteine peptide fold change (10 µM) | probe-labelled cysteine peptide fold change (50 µM)
C3orf38_Q5JPI3_224_CASSPHGLVMVGVAGTVHR (UniProt Q5JPI3) | 0.0426 | 0.173
CAMK2D_Q13557_428_SNKPIHTIILNPHVHLVGDDAACIAYIR (UniProt Q13557) | 0.115 | 0.0887
C16orf62_Q7Z3J2_864_LCETVMAQILEHLK (UniProt Q7Z3J2) | 0.0209 | -0.0604
CALR_P27797_163_CKDDEFTHLYTLIVRPDNTYEVK (UniProt P27797) | 0.029 | 0.198
BUB3_O43684_270_RLCQFHR (UniProt O43684) | 0.0658 | 0.317
C8orf88_P0DMB2_93_LSSVSICR (UniProt P0DMB2) | -0.216 | -0.797
BRD7_Q9NPI1_338_LVNSQCEFER (UniProt Q9NPI1) | -0.0257 | 0.0427
CABLES2_Q9BTV7_181_IVLICAK (UniProt Q9BTV7) | -0.13 | 0.031
C11orf68_Q9H3H3_214_QVICVYTDDFTDR (UniProt Q9H3H3) | 0.267 | -0.0173
C11orf68_Q9H3H3_263_WHLCPTLYESR (UniProt Q9H3H3) | -0.0216 | -0.2
BRIP1_Q9BX63_283_DHTCVHPEVVGNFNR (UniProt Q9BX63) | 0.111 | 0.0536
C19orf54_Q5BKX5_186_LAQEVLGCQAK (UniProt Q5BKX5) | -0.105 | -0.352
C11orf54_Q9H0W9_3_ACAEFSFHVPSLEELAGVMQK (UniProt Q9H0W9) | 0.0216 | -0.257
BRD1_O95696_638_NLHEFEEDFDLIIDNCMK (UniProt O95696) | 0.346 | 0.469

Complete entries from above:
BRD7_Q9NPI1_338_LVNSQCEFER (UniProt Q9NPI1) is listed as probe-labelled cysteine peptide fold change (10 µM): -0.0257; probe-labelled cysteine peptide fold change (50 µM): 0.0427
C11orf68_Q9H3H3_263_WHLCPTLYESR (UniProt Q9H3H3) is listed as probe-labelled cysteine peptide fold change (10 µM): -0.0216; probe-labelled cysteine peptide fold change (50 µM): -0.2
